Some of the results follow.
What was measured:
Assay in all cases: log2 fold change, soluble protein after heating vs DMSO (PISA); higher = thermal stabilisation; K562 lysate, 10 uM; active = over 0.2 and 3.5 SD of the protein, either way, in both replicates (recomputed)
alvocidib = compound: CN1CC[C@H](c2c(O)cc(O)c3c(=O)cc(-c4ccccc4Cl)oc23)[C@H](O)C1 [alvocidib]
Outline: (§1)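 Dounce homogenisation of K562 pellets in PBS pH 7.4 with 1 mM MgCl2 produced a crude extract, used at 1 mg/mL protein. Exposure to 10 μM compound lasted 30 min, and aliquots were then heated for 3 min across 48°C-58°C, pooled and brought to 0.5% NP-40 at 4°C. The supernatant after 21,000xg for 90 min was quantified by TMTpro 16plex LC-MS/MS with channel sums equalised. Duplicate values are given as log-two fold change in thermal stability relative to solvent controls.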

The chains behind the UniProt entries cited, without tags or fusion partners. Where a name states a change or a piece, a line headed by the entry shows the natural chain unless it says otherwise.
UniProt Q5MNZ6: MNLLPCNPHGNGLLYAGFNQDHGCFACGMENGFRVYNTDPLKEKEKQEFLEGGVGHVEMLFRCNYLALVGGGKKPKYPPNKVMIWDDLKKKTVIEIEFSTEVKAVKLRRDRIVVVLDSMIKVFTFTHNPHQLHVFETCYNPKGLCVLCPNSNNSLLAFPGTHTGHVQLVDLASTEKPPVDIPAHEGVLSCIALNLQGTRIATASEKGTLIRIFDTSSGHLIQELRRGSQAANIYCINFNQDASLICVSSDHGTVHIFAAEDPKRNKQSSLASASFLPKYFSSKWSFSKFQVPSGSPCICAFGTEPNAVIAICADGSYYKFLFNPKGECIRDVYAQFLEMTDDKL
UniProt Q5VIR6: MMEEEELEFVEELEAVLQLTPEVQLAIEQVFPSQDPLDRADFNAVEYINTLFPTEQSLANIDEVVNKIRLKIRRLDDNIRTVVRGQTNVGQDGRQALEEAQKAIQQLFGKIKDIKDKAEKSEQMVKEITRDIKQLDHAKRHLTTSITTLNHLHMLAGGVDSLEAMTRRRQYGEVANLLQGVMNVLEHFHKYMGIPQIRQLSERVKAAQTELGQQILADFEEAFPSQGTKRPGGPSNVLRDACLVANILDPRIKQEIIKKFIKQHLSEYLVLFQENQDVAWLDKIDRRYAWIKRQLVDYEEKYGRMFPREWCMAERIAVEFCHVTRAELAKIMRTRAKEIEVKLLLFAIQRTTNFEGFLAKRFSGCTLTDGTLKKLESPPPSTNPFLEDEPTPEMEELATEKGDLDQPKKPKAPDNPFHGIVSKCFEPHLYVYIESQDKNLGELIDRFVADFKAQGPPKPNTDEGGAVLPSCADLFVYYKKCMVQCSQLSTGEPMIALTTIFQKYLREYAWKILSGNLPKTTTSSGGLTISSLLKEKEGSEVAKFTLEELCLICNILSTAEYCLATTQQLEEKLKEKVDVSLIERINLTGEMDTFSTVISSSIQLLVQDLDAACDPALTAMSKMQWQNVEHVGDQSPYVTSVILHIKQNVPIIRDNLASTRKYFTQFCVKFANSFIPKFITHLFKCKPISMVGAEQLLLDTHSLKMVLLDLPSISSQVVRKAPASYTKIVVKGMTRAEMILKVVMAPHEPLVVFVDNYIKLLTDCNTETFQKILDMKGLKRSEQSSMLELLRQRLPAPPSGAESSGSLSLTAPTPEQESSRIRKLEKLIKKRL
UniProt O75554: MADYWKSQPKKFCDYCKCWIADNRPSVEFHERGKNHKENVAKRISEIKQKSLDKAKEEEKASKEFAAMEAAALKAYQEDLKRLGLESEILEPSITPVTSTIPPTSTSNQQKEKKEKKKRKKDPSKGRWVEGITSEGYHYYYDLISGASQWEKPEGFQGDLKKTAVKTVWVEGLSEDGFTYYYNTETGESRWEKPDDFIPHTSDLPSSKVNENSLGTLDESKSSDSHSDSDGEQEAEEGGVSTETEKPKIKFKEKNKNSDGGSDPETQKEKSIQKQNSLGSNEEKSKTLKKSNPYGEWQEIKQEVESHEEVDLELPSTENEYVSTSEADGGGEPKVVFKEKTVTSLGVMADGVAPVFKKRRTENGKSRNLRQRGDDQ
UniProt Q9Y4P8: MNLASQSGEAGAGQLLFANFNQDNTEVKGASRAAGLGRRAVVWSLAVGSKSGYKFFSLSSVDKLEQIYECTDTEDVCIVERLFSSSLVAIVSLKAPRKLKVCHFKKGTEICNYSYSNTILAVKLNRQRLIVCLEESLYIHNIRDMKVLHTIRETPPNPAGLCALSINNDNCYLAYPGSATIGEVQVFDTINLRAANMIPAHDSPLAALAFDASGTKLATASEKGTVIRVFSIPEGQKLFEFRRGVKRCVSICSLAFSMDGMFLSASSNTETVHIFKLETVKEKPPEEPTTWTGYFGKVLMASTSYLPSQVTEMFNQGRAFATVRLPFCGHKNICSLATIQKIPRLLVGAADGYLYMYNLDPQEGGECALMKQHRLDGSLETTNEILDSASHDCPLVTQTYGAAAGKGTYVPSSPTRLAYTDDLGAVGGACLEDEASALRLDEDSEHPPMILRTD
UniProt Q6VEQ5: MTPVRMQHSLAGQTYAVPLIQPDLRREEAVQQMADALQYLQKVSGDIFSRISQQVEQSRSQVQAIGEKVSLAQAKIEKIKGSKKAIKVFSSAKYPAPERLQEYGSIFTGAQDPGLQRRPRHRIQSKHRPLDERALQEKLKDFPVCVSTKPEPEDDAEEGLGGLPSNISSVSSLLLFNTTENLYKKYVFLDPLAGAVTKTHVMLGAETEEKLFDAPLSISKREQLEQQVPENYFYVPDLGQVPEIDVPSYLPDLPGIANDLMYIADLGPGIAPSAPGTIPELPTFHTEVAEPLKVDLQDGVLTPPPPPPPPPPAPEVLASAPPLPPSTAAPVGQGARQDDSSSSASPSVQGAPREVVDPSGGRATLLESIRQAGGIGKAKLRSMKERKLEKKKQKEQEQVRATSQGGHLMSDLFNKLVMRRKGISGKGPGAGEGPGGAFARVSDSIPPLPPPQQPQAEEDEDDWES
UniProt Q9Y4E1, whole entry, looked up: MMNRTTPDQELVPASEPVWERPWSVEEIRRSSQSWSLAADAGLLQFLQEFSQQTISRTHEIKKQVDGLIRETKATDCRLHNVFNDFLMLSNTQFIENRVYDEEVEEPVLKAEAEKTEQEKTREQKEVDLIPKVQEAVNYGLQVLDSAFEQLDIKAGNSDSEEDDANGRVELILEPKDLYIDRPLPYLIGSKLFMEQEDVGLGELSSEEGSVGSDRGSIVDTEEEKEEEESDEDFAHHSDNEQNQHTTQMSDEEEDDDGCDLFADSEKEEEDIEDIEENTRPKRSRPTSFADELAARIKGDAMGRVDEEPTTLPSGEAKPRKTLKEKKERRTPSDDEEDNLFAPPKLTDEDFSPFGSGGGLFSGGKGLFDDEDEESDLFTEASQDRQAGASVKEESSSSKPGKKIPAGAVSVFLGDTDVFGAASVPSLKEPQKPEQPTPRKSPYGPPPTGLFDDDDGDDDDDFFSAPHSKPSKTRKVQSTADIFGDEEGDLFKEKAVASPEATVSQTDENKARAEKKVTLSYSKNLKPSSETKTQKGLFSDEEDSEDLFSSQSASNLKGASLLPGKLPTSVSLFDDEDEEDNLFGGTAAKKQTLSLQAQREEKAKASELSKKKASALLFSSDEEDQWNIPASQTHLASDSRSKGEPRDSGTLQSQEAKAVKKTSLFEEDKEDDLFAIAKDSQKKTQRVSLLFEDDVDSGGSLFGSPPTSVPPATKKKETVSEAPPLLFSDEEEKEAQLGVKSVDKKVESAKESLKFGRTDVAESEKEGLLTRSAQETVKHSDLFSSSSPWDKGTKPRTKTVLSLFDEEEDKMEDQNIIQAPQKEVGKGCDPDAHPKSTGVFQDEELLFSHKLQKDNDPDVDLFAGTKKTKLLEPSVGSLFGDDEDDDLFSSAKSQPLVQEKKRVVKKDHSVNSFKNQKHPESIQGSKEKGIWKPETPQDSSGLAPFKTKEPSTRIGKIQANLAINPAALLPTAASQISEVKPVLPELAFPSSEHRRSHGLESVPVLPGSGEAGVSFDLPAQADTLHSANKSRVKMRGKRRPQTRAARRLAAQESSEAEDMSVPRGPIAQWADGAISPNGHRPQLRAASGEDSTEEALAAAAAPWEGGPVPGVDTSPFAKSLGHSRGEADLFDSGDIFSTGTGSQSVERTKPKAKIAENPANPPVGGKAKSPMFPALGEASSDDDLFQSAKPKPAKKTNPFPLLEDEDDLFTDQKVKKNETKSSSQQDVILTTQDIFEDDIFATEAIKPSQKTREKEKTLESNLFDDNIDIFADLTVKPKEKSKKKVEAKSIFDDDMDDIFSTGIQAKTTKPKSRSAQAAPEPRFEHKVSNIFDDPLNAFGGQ
UniProt Q5T750: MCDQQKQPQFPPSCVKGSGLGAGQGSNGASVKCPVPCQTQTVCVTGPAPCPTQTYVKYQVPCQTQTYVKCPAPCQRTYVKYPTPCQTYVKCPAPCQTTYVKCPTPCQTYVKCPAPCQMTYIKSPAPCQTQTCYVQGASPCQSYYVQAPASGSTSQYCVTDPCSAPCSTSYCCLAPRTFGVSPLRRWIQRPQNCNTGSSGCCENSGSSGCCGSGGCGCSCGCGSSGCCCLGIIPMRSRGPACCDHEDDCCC
UniProt Q96AJ9: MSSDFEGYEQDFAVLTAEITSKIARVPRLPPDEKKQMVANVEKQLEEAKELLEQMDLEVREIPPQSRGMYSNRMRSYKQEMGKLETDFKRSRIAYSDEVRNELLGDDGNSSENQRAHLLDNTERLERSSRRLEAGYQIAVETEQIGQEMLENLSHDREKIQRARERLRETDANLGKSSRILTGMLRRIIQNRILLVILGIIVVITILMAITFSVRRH
UniProt Q9BRG1: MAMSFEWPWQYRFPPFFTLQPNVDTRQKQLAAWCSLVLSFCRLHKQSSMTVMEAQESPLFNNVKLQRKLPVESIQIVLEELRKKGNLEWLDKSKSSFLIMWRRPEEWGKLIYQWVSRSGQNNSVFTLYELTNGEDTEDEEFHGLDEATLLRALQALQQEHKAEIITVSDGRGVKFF
UniProt Q3ZAQ7: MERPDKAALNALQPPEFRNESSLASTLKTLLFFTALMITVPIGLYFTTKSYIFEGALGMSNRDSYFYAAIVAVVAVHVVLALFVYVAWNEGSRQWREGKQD
UniProt Q96J92: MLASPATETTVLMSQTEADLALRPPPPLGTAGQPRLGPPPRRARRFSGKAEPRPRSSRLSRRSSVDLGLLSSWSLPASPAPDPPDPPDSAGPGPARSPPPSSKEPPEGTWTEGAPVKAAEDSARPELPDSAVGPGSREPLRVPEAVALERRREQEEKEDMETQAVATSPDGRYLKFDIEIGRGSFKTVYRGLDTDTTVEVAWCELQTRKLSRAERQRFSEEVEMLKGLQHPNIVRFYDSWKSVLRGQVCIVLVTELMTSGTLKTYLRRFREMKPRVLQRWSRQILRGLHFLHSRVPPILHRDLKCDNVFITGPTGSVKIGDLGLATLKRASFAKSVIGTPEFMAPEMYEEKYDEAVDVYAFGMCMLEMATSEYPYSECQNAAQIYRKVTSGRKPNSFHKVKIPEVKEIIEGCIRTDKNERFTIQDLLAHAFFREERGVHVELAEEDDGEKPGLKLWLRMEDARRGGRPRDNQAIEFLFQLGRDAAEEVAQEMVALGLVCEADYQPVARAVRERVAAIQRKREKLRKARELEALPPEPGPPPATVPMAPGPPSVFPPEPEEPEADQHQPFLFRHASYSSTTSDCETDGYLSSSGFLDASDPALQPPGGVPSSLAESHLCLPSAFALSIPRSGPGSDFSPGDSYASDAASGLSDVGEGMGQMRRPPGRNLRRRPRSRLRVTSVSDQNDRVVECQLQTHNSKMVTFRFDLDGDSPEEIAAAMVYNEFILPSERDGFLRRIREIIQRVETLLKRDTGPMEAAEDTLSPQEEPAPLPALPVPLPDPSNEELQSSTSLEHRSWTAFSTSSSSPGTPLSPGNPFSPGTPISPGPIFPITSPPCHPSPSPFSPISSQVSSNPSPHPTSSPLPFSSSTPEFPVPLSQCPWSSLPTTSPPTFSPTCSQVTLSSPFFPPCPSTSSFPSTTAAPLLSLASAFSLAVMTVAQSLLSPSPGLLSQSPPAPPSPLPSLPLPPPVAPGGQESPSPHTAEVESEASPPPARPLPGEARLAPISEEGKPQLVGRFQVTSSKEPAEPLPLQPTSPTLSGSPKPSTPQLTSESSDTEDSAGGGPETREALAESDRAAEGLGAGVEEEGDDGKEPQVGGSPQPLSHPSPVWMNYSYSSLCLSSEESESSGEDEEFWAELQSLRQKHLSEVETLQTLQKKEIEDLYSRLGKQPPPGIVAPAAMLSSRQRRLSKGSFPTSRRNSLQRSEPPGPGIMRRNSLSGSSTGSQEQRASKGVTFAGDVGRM
UniProt Q9NW82: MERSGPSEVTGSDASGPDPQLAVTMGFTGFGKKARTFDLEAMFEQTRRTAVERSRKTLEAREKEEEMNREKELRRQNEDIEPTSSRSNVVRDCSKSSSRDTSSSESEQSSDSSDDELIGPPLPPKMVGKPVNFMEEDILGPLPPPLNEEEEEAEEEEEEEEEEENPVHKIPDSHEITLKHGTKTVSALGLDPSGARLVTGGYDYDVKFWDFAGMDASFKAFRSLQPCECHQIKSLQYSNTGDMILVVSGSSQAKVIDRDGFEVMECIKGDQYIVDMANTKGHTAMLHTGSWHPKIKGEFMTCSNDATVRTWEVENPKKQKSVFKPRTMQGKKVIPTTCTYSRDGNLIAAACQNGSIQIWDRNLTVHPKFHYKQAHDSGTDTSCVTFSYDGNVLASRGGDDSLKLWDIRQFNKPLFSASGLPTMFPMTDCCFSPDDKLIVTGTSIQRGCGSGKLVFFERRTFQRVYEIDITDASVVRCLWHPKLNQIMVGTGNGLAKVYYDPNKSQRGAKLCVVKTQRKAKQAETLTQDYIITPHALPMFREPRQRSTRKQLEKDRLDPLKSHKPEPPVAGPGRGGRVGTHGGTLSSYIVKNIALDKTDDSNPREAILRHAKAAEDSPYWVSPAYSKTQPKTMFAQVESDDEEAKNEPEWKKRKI

Tubastatin A = compound: CN1CCc2c(c3ccccc3n2Cc2ccc(C(=O)NO)cc2)C1 [Tubastatin A]
Outline: as §1

[1] = compound: CNC(=O)C1=CC=CC=C1NC2=NC(=NC=C2Cl)NC3=C(C=C(C=C3)N4CCOCC4)OC
Outline: as §1

defactinib = compound: CNC(=O)c1ccc(Nc2ncc(C(F)(F)F)c(NCc3nccnc3N(C)S(C)(=O)=O)n2)cc1 [defactinib]
Outline: as §1

[2] = compound: CNc1nc(-c2ccc3c(N)n[nH]c3c2)cc(N2C[C@@H](C(=O)NC3CCCCC3)CC[C@H]2C)n1
Outline: as §1

encorafenib = compound: COC(=O)N[C@@H](C)CNc1nccc(-c2cn(C(C)C)nc2-c2cc(Cl)cc(NS(C)(=O)=O)c2F)n1 [encorafenib]
Outline: as §1

[3] = compound: COC(=O)[C@H](CCSC)NC(=O)C1=C(C=C(C=C1)NC[C@H](CS)N)C2=CC=CC=C2
Outline: as §1

alisertib = compound: COc1cc(Nc2ncc3c(n2)-c2ccc(Cl)cc2C(c2c(F)cccc2OC)=NC3)ccc1C(=O)O [alisertib]
Outline: as §1

[4] = compound: COc1cc2nc(-c3cc(F)ccc3O)nc(N[C@@H]3CNC[C@H]3C(C)(C)O)c2cc1OC
Outline: as §1

gefitinib = compound: COc1cc2ncnc(Nc3ccc(F)c(Cl)c3)c2cc1OCCCN1CCOCC1 [gefitinib]
Outline: as §1

Measured: log2 fold change

WDR45B (UniProt Q5MNZ6)
inactive: alvocidib -0.073 | Tubastatin A -0.03 | [1] 0.035 | defactinib -0.018 | [2] 0.023 | encorafenib -0.031 | [3] -0.004 | alisertib -0.035 | [4] 0.006 | gefitinib 0.069

VPS35 (UniProt Q96QK1)
inactive: alvocidib 0.01 | Tubastatin A -0.004 | [1] -0.022 | defactinib -0.022 | [2] 0.009 | encorafenib -0.014 | [3] -0.002 | alisertib -0.005 | [4] 0.006 | gefitinib -0.043

WASHC5 (UniProt Q12768)
inactive: alvocidib -0.041 | Tubastatin A -0.016 | [1] 0.017 | defactinib 0.03 | [2] 0.006 | encorafenib 0.009 | [3] 0.069 | alisertib 0.042 | [4] -0.005 | gefitinib 0.003

VPS53 isoform 4 (UniProt Q5VIR6)
inactive: alvocidib -0.017 | Tubastatin A -0.034 | [1] 0.012 | defactinib 0.018 | [2] -0.014 | encorafenib 0.014 | [3] -0.008 | alisertib -0.041 | [4] -0.006 | gefitinib 0.012

VPS37B (UniProt Q9H9H4)
inactive: alvocidib 0.025 | Tubastatin A -0.034 | [1] -0.047 | defactinib 0.052 | [2] 0.024 | encorafenib -0.014 | [3] -0.053 | alisertib -0.019 | [4] -0.003 | gefitinib -0.071

WDR12 (UniProt Q9GZL7)
inactive: alvocidib 0 | Tubastatin A -0.023 | [1] -0.01 | defactinib -0.014 | [2] 0.008 | encorafenib -0.012 | [3] 0 | alisertib 0.024 | [4] 0.016 | gefitinib 0.023

WDR41 (UniProt Q9HAD4)
inactive: alvocidib -0.061 | Tubastatin A -0.14 | [1] 0.021 | defactinib -0.044 | [2] 0.017 | encorafenib 0.081 | [3] -0.121 | alisertib 0.033 | [4] -0.047 | gefitinib 0.083

VPS29 isoform 2 (UniProt Q9UBQ0)
inactive: alvocidib 0.008 | Tubastatin A 0.033 | [1] -0.037 | defactinib -0.023 | [2] -0.001 | encorafenib 0.003 | [3] 0.003 | alisertib -0.007 | [4] 0.009 | gefitinib -0.027

WBP4 (UniProt O75554)
inactive: alvocidib 0.019 | Tubastatin A 0.038 | [1] -0.011 | defactinib 0.018 | [2] 0.021 | encorafenib 0.005 | [3] -0.024 | alisertib -0.029 | [4] 0.004 | gefitinib -0.047

WIPI2 isoform 6 (UniProt Q9Y4P8)
inactive: alvocidib -0.015

VRK1 (UniProt Q99986)
active: alvocidib 0.385
inactive: Tubastatin A -0.096 | [1] 0.008 | defactinib -0.067 | [2] 0.017 | encorafenib -0.027 | [3] 0.047 | alisertib -0.004 | [4] -0.007 | gefitinib -0.026

VPS18 (UniProt Q9P253)
inactive: alvocidib -0.016 | Tubastatin A -0.106 | [1] 0.011 | defactinib -0.057 | [2] -0.008 | encorafenib 0.019 | [3] -0.125 | alisertib 0.005 | [4] -0.006 | gefitinib 0.006

Quoted from the results shown (2 entries):
VPS29 isoform 2 (UniProt Q9UBQ0)
inactive: alvocidib 0.008 | Tubastatin A 0.033 | [1] -0.037 | defactinib -0.023 | [2] -0.001 | encorafenib 0.003 | [3] 0.003 | alisertib -0.007 | [4] 0.009 | gefitinib -0.027

WBP4 (UniProt O75554)
inactive: alvocidib 0.019 | Tubastatin A 0.038 | [1] -0.011 | defactinib 0.018 | [2] 0.021 | encorafenib 0.005 | [3] -0.024 | alisertib -0.029 | [4] 0.004 | gefitinib -0.047

(further entries)

VTN (UniProt P04004)
inactive: alvocidib -0.112 | Tubastatin A -0.012 | [1] -0.095 | defactinib 0.104 | [2] -0.061 | encorafenib 0.089 | [3] -0.074 | alisertib -0.041 | [4] 0.014 | gefitinib 0.009

VPS26C (UniProt O14972)
inactive: alvocidib -0.129 | Tubastatin A -0.042 | [1] 0.014 | defactinib 0.07 | [2] 0.007 | encorafenib -0.041 | [3] -0.077 | alisertib -0.093 | [4] -0.024 | gefitinib 0.006

VPS16 (UniProt Q9H269)
inactive: alvocidib 0.032 | Tubastatin A -0.082 | [1] 0.002 | defactinib -0.006 | [2] 0 | encorafenib 0.049 | [3] -0.069 | alisertib 0.031 | [4] -0.004 | gefitinib 0.013

WDFY1 (UniProt Q8IWB7)
inactive: alvocidib -0.028 | Tubastatin A 0.008 | [1] -0.028 | defactinib 0.034 | [2] -0.047 | encorafenib 0.027 | [3] -0.068 | alisertib -0.025 | [4] -0.008 | gefitinib 0.002

WASH2P (UniProt Q6VEQ5)
inactive: alvocidib 0.036 | Tubastatin A 0.01 | [1] -0.014 | defactinib 0.072 | [2] -0.012 | encorafenib 0.023 | [3] -0.045 | alisertib -0.019 | [4] -0.007 | gefitinib 0.044

WASHC2C (UniProt Q9Y4E1)
inactive: alvocidib -0.038 | Tubastatin A 0.022 | [1] 0.015 | defactinib 0.021 | [2] 0.027 | encorafenib 0.002 | [3] -0.074 | alisertib 0.056 | [4] 0.035 | gefitinib -0.015

XP32 (UniProt Q5T750)
inactive: alvocidib 0.183

WDR91 (UniProt A4D1P6)
inactive: alvocidib -0.018 | Tubastatin A -0.097 | [1] 0.017 | defactinib -0.003 | [2] -0.056 | encorafenib 0.026 | [3] 0.1 | alisertib 0.013 | [4] -0.007 | gefitinib -0.004

WDR24 (UniProt Q96S15)
inactive: alvocidib -0.001 | Tubastatin A -0.096 | [1] -0.032 | defactinib 0.053 | [2] -0.054 | encorafenib 0.022 | [3] 0.125 | alisertib -0.02 | [4] 0.021 | gefitinib -0.008

VTI1A (UniProt Q96AJ9)
inactive: alvocidib -0.023 | Tubastatin A 0.023 | [1] 0.001 | defactinib -0.196 | [2] -0.057 | encorafenib 0.016 | [3] -0.087 | alisertib -0.06 | [4] 0.046 | gefitinib 0.012

WDR3 (UniProt Q9UNX4)
inactive: alvocidib 0.008 | Tubastatin A -0.099 | [1] -0.013 | defactinib 0.031 | [2] -0.048 | encorafenib -0.008 | [3] 0.046 | alisertib 0.03 | [4] -0.007 | gefitinib -0.01

VPS25 (UniProt Q9BRG1)
inactive: alvocidib 0.068 | Tubastatin A 0.015 | [1] 0.018 | defactinib 0.047 | [2] 0.008 | encorafenib -0.005 | [3] -0.007 | alisertib 0.044 | [4] -0.015 | gefitinib -0.026

VMA21 (UniProt Q3ZAQ7)
inactive: alvocidib 0.068 | Tubastatin A -0.069 | [1] -0.013 | defactinib 0.124 | [2] -0.04 | encorafenib 0.034 | [3] -0.094 | alisertib 0.109 | [4] -0.09 | gefitinib -0.164

WTAP (UniProt Q15007)
inactive: alvocidib 0.01 | Tubastatin A -0.076 | [1] 0.058 | defactinib -0.004 | [2] 0.065 | encorafenib 0.025 | [3] -0.014 | alisertib -0.033 | [4] 0.04 | gefitinib -0.037

VPS8 (UniProt Q8N3P4)
inactive: alvocidib 0 | Tubastatin A -0.123 | [1] 0.001 | defactinib -0.001 | [2] 0.066 | encorafenib 0.023 | [3] -0.108 | alisertib 0.02 | [4] 0.006 | gefitinib -0.037

WRB (UniProt O00258)
inactive: alvocidib -0.022 | Tubastatin A 0.114 | [1] 0.029 | defactinib -0.003 | [2] 0.044 | encorafenib -0.067 | [3] 0.027 | alisertib -0.028 | [4] 0.022 | gefitinib 0.061

WNK4 (UniProt Q96J92)
inactive: alvocidib 0.122 | Tubastatin A 0.076 | [1] 0.119 | defactinib 0.039 | [2] -0.049 | encorafenib 0.033 | [3] 0.063 | alisertib -0.044 | [4] 0.045 | gefitinib 0.005

WDR70 (UniProt Q9NW82)
inactive: alvocidib 0.013 | Tubastatin A -0.033 | [1] -0.051 | defactinib -0.023 | [2] -0.016 | encorafenib 0.004 | [3] -0.084 | alisertib 0.003 | [4] -0.013 | gefitinib 0.038

XPNPEP1 isoform 3 (UniProt Q9NQW7)
active: [3] 0.613
inactive: alvocidib -0.018 | Tubastatin A 0.011 | [1] 0.029 | defactinib -0.001 | [2] -0.045 | encorafenib 0.001 | alisertib -0.002 | [4] 0.002 | gefitinib 0.002

From the supplement of paper PMC10849652
